Source: US20250034248A1 (ALBERT EINSTEIN COLLEGE OF MEDICINE, published 2025)
These are yes or no findings as the source states them, for the method shown. Some binding calls cover weakened binding; strength is not graded here.

Chains of the proteins cited; added tags and fusions are not shown. Lines headed by an entry give the natural chain unless they say otherwise; changes in a name come on top.
UniProt Q8TDQ0: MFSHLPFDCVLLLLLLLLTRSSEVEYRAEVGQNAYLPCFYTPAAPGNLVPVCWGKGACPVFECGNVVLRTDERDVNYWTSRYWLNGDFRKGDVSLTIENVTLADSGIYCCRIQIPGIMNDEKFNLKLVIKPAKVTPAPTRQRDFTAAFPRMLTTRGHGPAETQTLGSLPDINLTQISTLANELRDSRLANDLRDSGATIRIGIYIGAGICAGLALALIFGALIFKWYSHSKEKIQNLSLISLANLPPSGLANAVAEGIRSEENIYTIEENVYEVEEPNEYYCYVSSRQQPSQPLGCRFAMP

Experiments:
[1] = target: human Tim-3 expressed on cell lines (human) (UniProt Q8TDQ0); assay: FACS on cell lines expressing human Tim-3
[2] = target: human Tim-3 expressed on cell lines (human) (UniProt Q8TDQ0); assay: FACS on a cell line expressing human Tim-3

B1: mAb 15B4 (antibody, V domains shown)
VH: EVQLQQSGAEVVRPGALVKLSCKASGFNIKDYYMHWVRQRPEQGLEWIGWIDPENDNTIYDPKFQDRASITADTSSNTAYLQLSSLTSEDTAVYYCARDFGYVAWLVYWGQGTLVTVSA
VL: DIVMTQSQEFMSTSVGDRVSITCKASQNVDTAVAWYQQKPGQSPKLLIYSASNRYTGVPDRFTGTGSGTDFTLTINNMQSEDLADYFCQQYSSYPTFGGRTKLEIKR
notes: Mouse hybridoma antibody, IgG1 with kappa chain
binding [1]: binds | binding [2]: binds
